Experimental data taken from publication PMC12611769, “Phase-separated NDF−FACT condensates facilitate transcription elongation on chromatin” (Nature Cell Biology, 2025).
These are yes or no findings as the source states them, for the method shown. For part of these data: In cells and extracts the contact can be indirect. Some results given as binding are weak or reduced against the parent protein; the word gives no strength. For part of these data: Sequences can lack the tags named with a protein. Each block holds one molecule with its values, some of them ahead of it.

Chains of the proteins cited; added tags and fusions are not shown.
UniProt P32558: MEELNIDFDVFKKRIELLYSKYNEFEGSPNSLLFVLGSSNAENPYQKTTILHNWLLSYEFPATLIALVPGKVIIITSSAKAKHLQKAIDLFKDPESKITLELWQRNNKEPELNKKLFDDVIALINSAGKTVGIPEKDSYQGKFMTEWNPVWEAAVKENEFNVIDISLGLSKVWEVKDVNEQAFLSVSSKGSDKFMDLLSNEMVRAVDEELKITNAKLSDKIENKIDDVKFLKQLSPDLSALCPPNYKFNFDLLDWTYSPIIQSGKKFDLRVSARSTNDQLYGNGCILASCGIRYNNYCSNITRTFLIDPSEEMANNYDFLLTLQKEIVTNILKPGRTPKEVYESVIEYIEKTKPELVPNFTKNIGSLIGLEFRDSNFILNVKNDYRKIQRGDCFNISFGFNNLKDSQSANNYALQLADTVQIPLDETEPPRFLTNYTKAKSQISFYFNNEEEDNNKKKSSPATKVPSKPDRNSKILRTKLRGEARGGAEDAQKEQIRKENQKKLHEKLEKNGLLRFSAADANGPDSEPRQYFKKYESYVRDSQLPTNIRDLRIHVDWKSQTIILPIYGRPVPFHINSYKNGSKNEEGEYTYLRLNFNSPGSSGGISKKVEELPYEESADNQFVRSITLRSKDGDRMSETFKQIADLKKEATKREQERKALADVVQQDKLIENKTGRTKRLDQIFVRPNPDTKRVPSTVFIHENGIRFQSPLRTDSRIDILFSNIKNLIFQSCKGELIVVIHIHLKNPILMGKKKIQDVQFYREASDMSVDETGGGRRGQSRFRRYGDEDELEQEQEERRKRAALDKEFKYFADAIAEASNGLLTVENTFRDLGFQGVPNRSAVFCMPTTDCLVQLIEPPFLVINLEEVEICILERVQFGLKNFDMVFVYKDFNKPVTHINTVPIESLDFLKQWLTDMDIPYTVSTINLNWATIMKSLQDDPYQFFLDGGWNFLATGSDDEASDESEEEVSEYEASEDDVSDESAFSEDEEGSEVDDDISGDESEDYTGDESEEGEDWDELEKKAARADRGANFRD
UniProt Q04636: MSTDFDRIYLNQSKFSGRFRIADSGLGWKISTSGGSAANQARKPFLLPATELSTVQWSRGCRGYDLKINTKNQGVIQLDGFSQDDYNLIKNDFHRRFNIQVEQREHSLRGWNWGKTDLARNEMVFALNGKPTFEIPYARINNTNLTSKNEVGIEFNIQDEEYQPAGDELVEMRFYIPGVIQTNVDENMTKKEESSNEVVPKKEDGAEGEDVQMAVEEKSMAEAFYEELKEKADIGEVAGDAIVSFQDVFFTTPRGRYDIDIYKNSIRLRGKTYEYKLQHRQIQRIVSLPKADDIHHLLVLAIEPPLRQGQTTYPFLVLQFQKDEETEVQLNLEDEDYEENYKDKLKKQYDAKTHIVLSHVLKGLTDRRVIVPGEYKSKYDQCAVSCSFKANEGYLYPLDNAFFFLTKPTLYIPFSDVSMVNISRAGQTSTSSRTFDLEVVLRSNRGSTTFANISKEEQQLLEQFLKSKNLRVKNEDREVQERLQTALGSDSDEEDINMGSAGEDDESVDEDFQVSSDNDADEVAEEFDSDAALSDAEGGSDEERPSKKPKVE
UniProt Q9Y5B9: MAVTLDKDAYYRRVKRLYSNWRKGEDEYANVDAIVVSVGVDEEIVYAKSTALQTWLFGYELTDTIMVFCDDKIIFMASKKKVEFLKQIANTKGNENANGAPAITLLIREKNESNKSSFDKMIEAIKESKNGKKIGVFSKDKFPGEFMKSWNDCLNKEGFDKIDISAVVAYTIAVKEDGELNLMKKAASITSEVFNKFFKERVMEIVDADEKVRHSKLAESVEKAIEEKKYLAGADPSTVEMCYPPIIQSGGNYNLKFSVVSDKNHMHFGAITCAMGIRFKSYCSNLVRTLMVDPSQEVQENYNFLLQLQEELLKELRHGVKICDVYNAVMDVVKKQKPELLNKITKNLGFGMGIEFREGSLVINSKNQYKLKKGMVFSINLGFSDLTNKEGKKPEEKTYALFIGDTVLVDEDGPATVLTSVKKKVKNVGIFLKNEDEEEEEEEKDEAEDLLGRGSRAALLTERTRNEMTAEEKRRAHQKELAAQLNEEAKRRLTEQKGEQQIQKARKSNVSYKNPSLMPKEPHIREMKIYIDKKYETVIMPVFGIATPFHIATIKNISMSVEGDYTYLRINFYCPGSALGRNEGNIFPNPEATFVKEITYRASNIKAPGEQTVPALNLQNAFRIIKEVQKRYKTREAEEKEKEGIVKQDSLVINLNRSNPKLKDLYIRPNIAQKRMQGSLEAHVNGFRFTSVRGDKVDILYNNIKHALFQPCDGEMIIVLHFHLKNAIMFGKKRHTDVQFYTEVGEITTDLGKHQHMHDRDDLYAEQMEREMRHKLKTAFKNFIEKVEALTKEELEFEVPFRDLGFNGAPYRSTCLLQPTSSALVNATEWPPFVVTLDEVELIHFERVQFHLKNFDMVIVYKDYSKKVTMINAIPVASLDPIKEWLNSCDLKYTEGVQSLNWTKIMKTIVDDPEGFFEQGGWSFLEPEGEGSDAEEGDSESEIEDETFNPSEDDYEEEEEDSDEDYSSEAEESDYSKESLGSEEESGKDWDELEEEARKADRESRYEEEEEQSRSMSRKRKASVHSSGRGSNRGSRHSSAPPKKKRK

Columns and labels:
[1] = molecular target: His6-ySpt16 (S. cerevisiae Spt16) (S. cerevisiae) (UniProt P32558); test: co-purification (tandem affinity, His tag then Flag M2); his-ySpt16 and Flag-yPob3 co-expressed in bacteria; purified similar to his-hNDF, then Flag M2 agarose, 3x Flag peptide elution; SDS-PAGE
[2] = molecular target: T1, NDF (nucleosome destabilizing factor), endogenous (human (endogenous in HeLa)) (UniProt Q49A26); test: co-IP; HeLa lysate in RIPA buffer, sonicated; hNDF antiserum on Protein A agarose, 4 °C 3 h; western blot
T1 sequence: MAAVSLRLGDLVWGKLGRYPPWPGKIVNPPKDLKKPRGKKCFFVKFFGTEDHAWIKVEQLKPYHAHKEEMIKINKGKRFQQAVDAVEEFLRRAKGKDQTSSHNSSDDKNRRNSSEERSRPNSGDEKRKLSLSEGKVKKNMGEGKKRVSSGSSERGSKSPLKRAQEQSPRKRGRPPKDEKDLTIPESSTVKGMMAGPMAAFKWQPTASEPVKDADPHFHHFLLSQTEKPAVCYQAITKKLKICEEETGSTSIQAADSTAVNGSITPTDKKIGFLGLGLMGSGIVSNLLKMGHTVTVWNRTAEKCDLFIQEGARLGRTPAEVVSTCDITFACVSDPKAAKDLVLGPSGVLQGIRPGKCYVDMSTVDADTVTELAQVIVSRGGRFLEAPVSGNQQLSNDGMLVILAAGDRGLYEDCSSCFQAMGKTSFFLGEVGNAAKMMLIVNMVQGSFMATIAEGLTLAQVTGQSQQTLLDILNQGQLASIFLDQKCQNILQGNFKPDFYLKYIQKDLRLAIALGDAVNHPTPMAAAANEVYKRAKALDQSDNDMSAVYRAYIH

[3] = molecular target: T2, His6-ySpt5 (S. cerevisiae Spt5) (S. cerevisiae) (UniProt P27692); test: co-purification (tandem affinity, Ni-NTA then Flag M2); His6-ySpt5 and Flag-ySpt4 co-expressed in Rosetta 2 (DE3) pLysS; Ni-NTA in 700 mM NaCl, then Flag M2 agarose with washes at 400 mM KCl, 3x Flag peptide elution, 4 °C
T2 sequence: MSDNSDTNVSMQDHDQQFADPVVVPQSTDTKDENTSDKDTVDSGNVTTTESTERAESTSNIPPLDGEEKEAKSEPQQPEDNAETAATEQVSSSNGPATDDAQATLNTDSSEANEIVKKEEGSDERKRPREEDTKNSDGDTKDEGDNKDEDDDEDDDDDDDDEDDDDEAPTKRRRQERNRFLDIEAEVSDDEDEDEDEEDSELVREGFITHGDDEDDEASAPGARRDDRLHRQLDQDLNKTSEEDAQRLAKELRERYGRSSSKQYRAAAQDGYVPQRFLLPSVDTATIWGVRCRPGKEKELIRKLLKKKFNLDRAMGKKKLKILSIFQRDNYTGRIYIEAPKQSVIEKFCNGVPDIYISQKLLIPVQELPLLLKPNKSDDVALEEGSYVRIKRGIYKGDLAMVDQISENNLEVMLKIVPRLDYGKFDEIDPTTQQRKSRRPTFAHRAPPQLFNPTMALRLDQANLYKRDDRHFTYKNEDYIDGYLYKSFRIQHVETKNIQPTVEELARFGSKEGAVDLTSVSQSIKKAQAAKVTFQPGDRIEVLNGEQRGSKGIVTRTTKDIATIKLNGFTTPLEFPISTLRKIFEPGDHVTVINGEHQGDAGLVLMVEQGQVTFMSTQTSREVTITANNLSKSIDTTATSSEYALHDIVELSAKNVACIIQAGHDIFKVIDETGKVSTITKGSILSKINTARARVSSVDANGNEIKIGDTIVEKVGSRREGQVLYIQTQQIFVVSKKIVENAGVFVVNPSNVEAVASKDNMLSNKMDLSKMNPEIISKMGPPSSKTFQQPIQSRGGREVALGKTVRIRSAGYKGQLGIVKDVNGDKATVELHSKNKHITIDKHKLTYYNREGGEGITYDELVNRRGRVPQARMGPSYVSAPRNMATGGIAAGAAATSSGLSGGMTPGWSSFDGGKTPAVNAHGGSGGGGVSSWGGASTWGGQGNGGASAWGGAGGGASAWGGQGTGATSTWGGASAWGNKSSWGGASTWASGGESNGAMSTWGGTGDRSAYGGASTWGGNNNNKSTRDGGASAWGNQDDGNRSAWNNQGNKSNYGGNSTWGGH

- binding [1]: binds
Molecule: Flag-yPob3 (S. cerevisiae Pob3) (from UniProt Q04636 1-552)

- binding [2]: binds
Molecule: Spt16 (SUPT16H), subunit of the human FACT complex, endogenous (from UniProt Q9Y5B9 1-1047)

- binding [3]: binds
B1: Flag-ySpt4 (S. cerevisiae Spt4) (protein, UniProt P32914 1-102)
chain: MSSERACMLCGIVQTTNEFNRDGCPNCQGIFEEAGVSTMECTSPSFEGLVGMCKPTKSWVAKWLSVDHSIAGMYAIKVDGRLPAEVVELLPHYKPRDGSQVE
